Measured values from PubChem BioAssay AID206 (DTP/NCI, 2004).
The list does not hold the whole screen: it gathers tests that were run many times, whatever their T/C, doses with no T/C, and many T/C values between a quarter and a half above the control. Other doses and runs of a compound stand elsewhere. T/C: endpoint of the treated group in % of that of the vehicle group. Schedule codes are those of the source, taken here to give the interval after Q, in days (D) or hours (H), and the number of doses after X. Some T/C values are followed by the survivors on the day toxicity was checked, most often the fifth; where none is given, no animal had died by that day. Some doses have a count of surviving animals in place of a T/C: the source holds a T/C of zero for them, seemingly a mark for toxic or unscored doses. Survivors were counted at the toxicity check, usually on the fifth day, unless a day is given; later deaths do not show. Some entries were tested several times; the values are given in rising order.

Tested on: nude mice, HT29 intrarenal xenograft, tumor weight T/C
Test: NCI In Vivo Anticancer Drug Screen. Data for tumor model HT29;CX-1 Human Adenocarcinoma (MER+) (intrarenal inoculation) in NU/NU Swiss (nude) mice
Details: T/C endpoint: mean tumor weight change, higher T/C = larger tumour
Procedure, shortened: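 Tumor-bearing mice received test compound or vehicle, and tumor size or survival was recorded. Values are the treated-group measurement divided by the vehicle-treated control measurement.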

[1] = dose: 40.0 mg/kg/injection, schedule: Q04DX004 (sc), vehicle: saline
[2] = dose: 150.0 mg/kg/injection, schedule: Q04DX004 (sc), vehicle: saline, evaluated on day 15
[3] = dose: 150.0 mg/kg/injection, schedule: Q04DX004 (sc), vehicle: suspension in saline

CCOC(=O)C(C)(C)Oc1ccc(Cl)cc1
survivor count (dose: 2400.0 mg/kg/injection, schedule: Q04DX004 (sc), vehicle: saline with Tween-80): 0 of 6 on day 15

c1ccc([P+](c2ccccc2)(c2ccccc2)c2ccccc2)cc1
survivor count [1]: 0 of 6 on day 15

Cc1cc2c(c3oc(C4(C)OC4C4OC4C)cc(=O)c13)C(=O)c1c(O)c(C3CC(C)(N(C)C)C(O)C(C)O3)cc(C3CC(N(C)C)C(O)C(C)O3)c1C2=O (stereo unspecified)
survivor count (dose: 0.25 mg/kg/injection, schedule: Q01DX010 (sc), vehicle: saline): 0 of 3 on day 11 | survivor count (dose: 0.5 mg/kg/injection, schedule: Q01DX010 (sc), vehicle: saline): 0 of 3 on day 11 | survivor count (dose: 1.0 mg/kg/injection, schedule: Q01DX010 (sc), vehicle: saline): 0 of 2 on day 11

CC(=O)OCC1OC(n2cc(CBr)nn2)C(OC(C)=O)C(OC(C)=O)C1OC(C)=O (stereo unspecified)
T/C (dose: 100.0 mg/kg/injection, schedule: Q01DX010 (sc), vehicle: saline with Tween-80, evaluated on day 11): 135 % of control

O=C(O)C1CC(c2ccccc2)=NN1c1ccccc1 (stereo unspecified)
survivor count (dose: 600.0 mg/kg/injection, schedule: Q04DX004 (sc), vehicle: water): 1 of 6 on day 15

CC(=O)Oc1ccccc1O
survivor count (dose: 600.0 mg/kg/injection, schedule: Q04DX004 (sc), vehicle: saline + Tween-80 + alcohol): 3 of 6 on day 15

C/C=C(\C)c1cc(=O)c2c(C)cc3c(c2o1)C(=O)c1c(O)c(C2CC(C)(N(C)C)C(OC(C)=O)C(C)O2)cc(C2CC(N(C)C)C(O)C(C)O2)c1C3=O (stereo unspecified)
survivor count [1]: 0 of 6 on day 15 | survivor count (dose: 80.0 mg/kg/injection, schedule: Q04DX004 (sc), vehicle: saline): 0 of 6 on day 15

COc1cccc2c1C(=O)c1c(O)c3c(c(O)c1C2=O)C[C@@](O)(C(C)=O)C[C@@H]3OC1CC(N(Cc2ccccc2)Cc2ccccc2)C(O)C(C)O1 (stereo partly specified)
survivor count (dose: 50.0 mg/kg/injection, schedule: Q01DX010 (sc), vehicle: water): 1 of 3 on day 20 | survivor count (dose: 100.0 mg/kg/injection, schedule: Q01DX010 (sc), vehicle: water): 0 of 3 on day 20 | survivor count (dose: 200.0 mg/kg/injection, schedule: Q01DX010 (sc), vehicle: water): 0 of 3 on day 20 | survivor count (dose: 250.0 mg/kg/injection, schedule: Q04DX004 (sc), vehicle: water): 1 of 3 on day 15

O=C1NCC(Br)C(=O)N1 (stereo unspecified)
survivor count (dose: 1200.0 mg/kg/injection, schedule: Q04DX004 (sc), vehicle: saline with Tween-80): 0 of 6 on day 15

CCCCCCCCNc1cc2c3c(c1)CCCN3CCC2
survivor count (dose: 24.0 mg/kg/injection, schedule: Q04DX004 (sc), vehicle: Klucel (hydroxypropylcellulose) (HPC)): 0 of 6 on day 15

CCN(CC)CCNc1ccc(C)c2sc3ccc(O)cc3c(=O)c12
T/C (dose: 600.0 mg/kg/injection, schedule: Q04DX004 (sc), vehicle: saline with Tween-80, evaluated on day 15): 142 % of control

O=C(NP(=O)(N1CC1)N1CC1)c1cc(I)ccc1I
T/C (dose: 75.0 mg/kg/injection, schedule: Q04DX004 (sc), vehicle: saline, evaluated on day 15): 132 % of control | T/C [2]: 142 % of control | survivor count (dose: 300.0 mg/kg/injection, schedule: Q04DX004 (sc), vehicle: saline): 3 of 6 on day 15 | survivor count (dose: 600.0 mg/kg/injection, schedule: Q04DX004 (sc), vehicle: saline): 0 of 4 on day 15

O=C(O)CCCc1ccc(N(CCCl)CCCl)cc1
T/C (dose: 2.0 mg/kg/injection, schedule: Q01DX010 (sc), vehicle: saline with Tween-80, evaluated on day 11): 147 % of control [2 of 2 alive on day 11] | survivor count (dose: 16.0 mg/kg/injection, schedule: Q01DX010 (sc), vehicle: saline with Tween-80): 2 of 6 on day 11 | survivor count (dose: 32.0 mg/kg/injection, schedule: Q01DX010 (sc), vehicle: saline with Tween-80): 0 of 6 on day 11 and 1 of 6 on day 11

CCCCCCCCCCCCCCCCP(=O)(OCCOCCCCCC)OCCOCCCCCC
T/C [2]: 126 % of control

[CH3][Sn]([CH3])([Cl])[S]CCN
survivor count [3]: 0 of 6 on day 15

O=[N+]([O-])c1ccc(Sc2ccncn2)c([N+](=O)[O-])c1
T/C (dose: 75.0 mg/kg/injection, schedule: Q04DX004 (sc), vehicle: saline with Tween-80, evaluated on day 15): 128 % of control

Nc1nc([Se])c2ncn(C3OC(CO)C(O)C3O)c2n1 (stereo unspecified)
T/C (dose: 4.0 mg/kg/injection, schedule: Q01DX010 (sc), vehicle: saline, evaluated on day 11): 143 % of control

CC(C)NCC(O)COc1ccc(O)c(O)c1 (stereo unspecified)
T/C (dose: 24.0 mg/kg/injection, schedule: Q04DX004 (sc), vehicle: saline, evaluated on day 15): 129 % of control | survivor count (dose: 25.0 mg/kg/injection, schedule: Q04DX004 (sc), vehicle: saline): 0 of 6 on day 15 | survivor count (dose: 50.0 mg/kg/injection, schedule: Q04DX004 (sc), vehicle: saline): 0 of 6 on day 15 | survivor count (dose: 100.0 mg/kg/injection, schedule: Q04DX004 (sc), vehicle: saline): 0 of 6 on day 15 | survivor count [3]: 0 of 6 on day 15 | survivor count (dose: 200.0 mg/kg/injection, schedule: Q04DX004 (sc), vehicle: saline): 0 of 6 on day 15 | survivor count (dose: 300.0 mg/kg/injection, schedule: Q04DX004 (sc), vehicle: suspension in saline): 0 of 6 on day 15 | survivor count (dose: 600.0 mg/kg/injection, schedule: Q04DX004 (sc), vehicle: suspension in saline): 0 of 6 on day 15 | survivor count (dose: 1200.0 mg/kg/injection, schedule: Q04DX004 (sc), vehicle: suspension in saline): 0 of 5 on day 15

C[n+]1c(/C=N/NC(N)=S)ccc2ccccc21
T/C (dose: 300.0 mg/kg/injection, schedule: Q04DX004 (sc), vehicle: saline with Tween-80, evaluated on day 15): 129 % of control

COC1OC(CO)C(O)C(NC(=O)N(C)N=O)C1O (stereo unspecified)
survivor count (dose: 1800.0 mg/kg/injection, schedule: Q04DX004 (sc), vehicle: suspension in saline): 0 of 5 on day 15

O=S(=O)(c1ccccc1)N1CN2CCN(C2)C1
survivor count (dose: 1800.0 mg/kg/injection, schedule: Q04DX004 (sc), vehicle: saline with Tween-80): 0 of 6 on day 15

COc1ccc(C(N)=O)cc1N=NN(C)C
T/C (dose: 37.5 mg/kg/injection, schedule: Q04DX004 (sc), vehicle: Klucel (hydroxypropylcellulose) (HPC), evaluated on day 15): 128 % of control | survivor count (dose: 300.0 mg/kg/injection, schedule: Q04DX004 (sc), vehicle: Klucel (hydroxypropylcellulose) (HPC)): 0 of 5 on day 15 and 0 of 6 on day 15

CCCCCc1cc(/C=C2/N=C(c3ccc[nH]3)C=C2OC)[nH]c1C
survivor count (dose: 32.0 mg/kg/injection, schedule: Q04DX004 (sc), vehicle: saline with Tween-80): 3 of 6 on day 15 | survivor count (dose: 64.0 mg/kg/injection, schedule: Q04DX004 (sc), vehicle: saline with Tween-80): 2 of 6 on day 15 | survivor count (dose: 128.0 mg/kg/injection, schedule: Q04DX004 (sc), vehicle: saline with Tween-80): 0 of 6 on day 15

O=S(=O)(CCl)OCCCl
survivor count (dose: 200.0 mg/kg/injection, schedule: Q04DX004 (sc), vehicle: saline with Tween-80): 0 of 6 on day 15 | survivor count (dose: 400.0 mg/kg/injection, schedule: Q04DX004 (sc), vehicle: saline with Tween-80): 0 of 6 on day 15

O=Cc1ccccc1
T/C (dose: 100.0 mg/kg/injection, schedule: Q04DX004 (sc), vehicle: Klucel (hydroxypropylcellulose) (HPC), evaluated on day 15): 132 % of control | survivor count (dose: 800.0 mg/kg/injection, schedule: Q04DX004 (sc), vehicle: Klucel (hydroxypropylcellulose) (HPC)): 3 of 6 on day 15

O=C1C=C[C@H](O)[C@@]2(CO)O[C@@H]12
T/C (dose: 3.12 mg/kg/injection, schedule: Q04DX004 (sc), vehicle: saline with Tween-80, evaluated on day 15): 136 % of control | survivor count (dose: 25.0 mg/kg/injection, schedule: Q04DX004 (sc), vehicle: saline with Tween-80): 0 of 6 on day 15

CC1=CC2c3cccc4[nH]cc(c34)CC2N(C)C1 (stereo unspecified)
survivor count (dose: 100.0 mg/kg/injection, schedule: Q04DX004 (sc), vehicle: suspension in saline): 2 of 6 on day 15

CS(=O)(=O)OCCN(CCOS(C)(=O)=O)c1ccc(C=O)cc1
survivor count (dose: 100.0 mg/kg/injection, schedule: Q01DX010 (sc), vehicle: saline): 0 of 3 on day 11

O=C(CCBr)N1CCN(C(=O)CCBr)CC1
survivor count (dose: 50.0 mg/kg/injection, schedule: Q01DX010 (sc), vehicle: Klucel (hydroxypropylcellulose) (HPC)): 0 of 3 on day 20 | survivor count (dose: 100.0 mg/kg/injection, schedule: Q01DX010 (sc), vehicle: Klucel (hydroxypropylcellulose) (HPC)): 0 of 3 on day 20

Cc1c2ccccc2cc2cccc[n+]12
survivor count (dose: 60.0 mg/kg/injection, schedule: Q04DX004 (sc), vehicle: saline): 0 of 6 on day 15
